Data published in US20150290232A1, “DRUG COMPOSITION FOR TREATING TUMORS AND APPLICATION THEREOF” (priority 2012, published 2015).
At least one structure is not confirmed: it was looked up by name or label, or the drawing left a doubt.

Test system: Hep G2 transplanted tumor (human hepatoma carcinoma cell)
Experiment: Example 4: TTD on Hep G2 transplanted tumor in nude mice
Assay type: in vivo, BALB/c-nu nude mice
Details: Hep G2, TTD 50 mg/kg/time
Experimental: Under sterile conditions, the above tumor cells were collected in the logarithmic growth phase. A549 was injected by subcutaneous injection in an amount of 1×10 7/0 2 mL/nude mice (cell viability>90%) into the right subaxillary of the nude mice, and Hep G2 was injected by subcutaneous injection in an amount of 1×10^7/0.2 mL/nude mice (cell viability>90%) into the left subaxillary of the nude mice thus establishing transplated tumor models of lung cancer and liver cancer respectively in nude mice. The administration was carried out from the second day after the inoculation. […] The day before administration was deemed as Day 0 and the body weight and tumor size of the mice were determined every 5 days to produce a dynamic plot on body weight and tumor growth. […] The tumor inhibition rate (%) was calculated after the effect of the medicament based on a tumor inhibition rate of the control group being zero.
The values determined were presented as mean±standard error (Mean±SD). The experimental data for each group was analyzed with One-way ANOVA method in the SPSS 18.0 statistical software, and p<0.05 means that the differences are statistically significant.

SMILES: COc1ccc2cc1Oc1ccc(cc1)C[C@H]1c3cc(c(OC)cc3CCN1C)Oc1c(OC)c(OC)cc3c1[C@H](C2)N(C)CC3 [TTD, tetrandrine]
- inhibitory effect on liver cancer transplanted tumor (in words): did not exhibit good inhibitory effect
